The results in this text go back to PubChem BioAssay AID248 (DTP/NCI, 2004).

The list is a part of this screen's results and no random one: it gathers tests that were run many times, whatever their T/C, doses with no T/C, and many T/C values between a quarter and a half above the control. Further doses and runs are listed elsewhere. T/C is the treated group as % of the vehicle group. Some doses have a count of surviving animals in place of a T/C: the source files T/C as zero there, which appears to mark a toxic dose or a test without result, not a measured value. Some doses without a T/C left all or most animals alive at the check, yet need not have been tolerated: survival well below the control is almost never listed, so the zero probably covers shortened survival too. Survivors were counted at the toxicity check, usually on the fifth day, unless a day is given; later deaths do not show. Schedules are NCI's codes, read here as Q, the interval in days (D) or hours (H), X, the number of doses. Some structures stand for samples that the source files as different forms (salt, stereo form or complex); doses refer to the form tested. For survival time, this PubChem deposit counts one and a half times the control or more as active, and values a quarter to a half above the control carry no call in these data; other NCI protocols may use other cut-offs. Some T/C values carry the count of animals alive at the toxicity check (mostly the fifth day); where none is given, no animal had died by that day.

The subject of the experiment is L1210 leukemia ip in BDF1 mice, survival T/C. The experiment can be described thus: NCI In Vivo Anticancer Drug Screen. Data for tumor model L1210 Leukemia (intraperitoneal) in B6D2F1 (BDF1) mice. The settings on record: T/C endpoint: mean survival time, higher T/C = longer survival.
The mark [1] stands for this setting: dose: 400.0 mg/kg/injection, schedule: Q01DX009 (ip), vehicle: Klucel (hydroxypropylcellulose) (HPC).
The mark [2] stands for this setting: dose: 100.0 mg/kg/injection, schedule: Q01DX009 (ip), vehicle: saline with Tween-80.
[3] abbreviates: dose: 200.0 mg/kg/injection, schedule: Q01DX009 (ip), vehicle: saline with Tween-80.
[4] abbreviates: dose: 300.0 mg/kg/injection, schedule: Q01DX001 (ip), vehicle: saline.
[5] abbreviates: dose: 100.0 mg/kg/injection, schedule: Q04DX002 (ip), vehicle: saline with Tween-80.
The mark [6] stands for this setting: dose: 400.0 mg/kg/injection, schedule: Q04DX003 (ip), vehicle: saline with Tween-80.
Where [7] appears, read: dose: 400.0 mg/kg/injection, schedule: Q04DX003 (ip), vehicle: Klucel (hydroxypropylcellulose) (HPC).
[8] abbreviates: dose: 200.0 mg/kg/injection, schedule: Q04DX002 (ip), vehicle: saline with Tween-80.
[9] abbreviates: dose: 400.0 mg/kg/injection, schedule: Q04DX002 (ip), vehicle: saline with Tween-80.

As to `CC(CN1CC(=O)NC(=O)C1)N1CC(=O)NC(=O)C1.[Cl-].[Pt+4]` (stereo not given), the T/C was 137 % of control (dose: 50.0 mg/kg/injection, schedule: Q01DX009 (ip), vehicle: saline) and 133 % of control [5 of 6 alive] (dose: 100.0 mg/kg/injection, schedule: Q04DX003 (ip), vehicle: saline). The survivor count is reported as 1 of 6 (dose: 100.0 mg/kg/injection, schedule: Q01DX009 (ip), vehicle: saline); 0 of 6 (dose: 200.0 mg/kg/injection, schedule: Q01DX009 (ip), vehicle: saline); 0 of 6 (dose: 200.0 mg/kg/injection, schedule: Q04DX003 (ip), vehicle: saline); 0 of 6 (dose: 400.0 mg/kg/injection, schedule: Q04DX003 (ip), vehicle: saline).

On to `COC(=O)Cc1oc(=O)n(-c2ccccc2)c(=O)c1C(=O)OC`, for which the survivor count by setting is: (dose: 100.0 mg/kg/injection, schedule: Q04DX002 (ip), vehicle: gum acacia) 2 of 3; (dose: 200.0 mg/kg/injection, schedule: Q04DX002 (ip), vehicle: gum acacia) 0 of 3; (dose: 400.0 mg/kg/injection, schedule: Q04DX002 (ip), vehicle: gum acacia) 0 of 3.

Take `C=CS(=O)(=O)c1ccc2ccccc2c1`: the survivor count is listed as 0 of 3 (dose: 100.0 mg/kg/injection, schedule: Q04DX002 (ip), vehicle: Klucel (hydroxypropylcellulose) (HPC)); 0 of 3 (dose: 200.0 mg/kg/injection, schedule: Q04DX002 (ip), vehicle: Klucel (hydroxypropylcellulose) (HPC)); 0 of 3 (dose: 400.0 mg/kg/injection, schedule: Q04DX002 (ip), vehicle: Klucel (hydroxypropylcellulose) (HPC)).

As for `O=c1oc(-c2ccco2)nc2ccccc12`, the survivor count under setting [1] is recorded as 3 of 6.

Take `O=C(c1ccccc1)C(O)(CC(c1ccccc1)[P+](c1ccccc1)(c1ccccc1)c1ccccc1)c1ccccc1` (stereo not given): the survivor count runs as follows: (dose: 7.0 mg/kg/injection, schedule: Q01DX009 (ip), vehicle: saline) 2 of 6; (dose: 14.0 mg/kg/injection, schedule: Q01DX009 (ip), vehicle: saline) 1 of 6; (dose: 50.0 mg/kg/injection, schedule: Q01DX009 (ip), vehicle: Klucel (hydroxypropylcellulose) (HPC)) 1 of 6; (dose: 100.0 mg/kg/injection, schedule: Q01DX001 (ip), vehicle: saline with Tween-80) 5 of 6; (dose: 200.0 mg/kg/injection, schedule: Q01DX001 (ip), vehicle: saline with Tween-80) 5 of 6.

Consider `O=C(CBr)Nc1cc([N+](=O)[O-])ccc1O`, for which the survivor count is listed as 2 of 3 (dose: 50.0 mg/kg/injection, schedule: Q01DX009 (ip), vehicle: saline with Tween-80); 0 of 3 under setting [2]; 0 of 3 under setting [3].

Turning to `Cc1ncc(CCl)c2c1OC(C)(C)OC2`, the survivor count is 0 of 6 under setting [4] and 1 of 4 (dose: 400.0 mg/kg/injection, schedule: Q01DX001 (ip), vehicle: saline).

In the case of `C=C(CCCCC)C(=O)/C=C/c1ccc(Cl)c(Cl)c1`, the survivor count runs as follows: (dose: 100.0 mg/kg/injection, schedule: Q04DX002 (ip), vehicle: DMSO) 0 of 3; (dose: 200.0 mg/kg/injection, schedule: Q04DX002 (ip), vehicle: DMSO) 0 of 3; (dose: 400.0 mg/kg/injection, schedule: Q04DX002 (ip), vehicle: DMSO) 0 of 3.

`CC1CN=C(c2ccc(O)cc2)S1` (stereo not given): the survivor count (dose: 400.0 mg/kg/injection, schedule: Q01DX005 (ip), vehicle: saline) is given as 3 of 3.

On to `O=C1c2ccccc2-c2ccc(-c3ccccc3)c3cccc1c23`, for which the survivor count under setting [5] is listed as 3 of 3.

With `C1CCCCCC(NC2=NCCO2)CCCCC1`, the survivor count by setting is: (dose: 100.0 mg/kg/injection, schedule: Q04DX003 (ip), vehicle: saline with Tween-80) 5 of 6; (dose: 200.0 mg/kg/injection, schedule: Q04DX003 (ip), vehicle: saline with Tween-80) 1 of 6; under setting [6], 1 of 6.

On to `[O-][n+]1onc2ncccc21`, for which the survivor count reads like this: (dose: 200.0 mg/kg/injection, schedule: Q04DX003 (ip), vehicle: Klucel (hydroxypropylcellulose) (HPC)) 1 of 6; under setting [7], 0 of 6.

Turning to `Clc1ccc(CI)cc1`, the survivor count was 6 of 6 (dose: 100.0 mg/kg/injection, schedule: Q04DX003 (ip), vehicle: alcohol); 5 of 6 (dose: 200.0 mg/kg/injection, schedule: Q04DX003 (ip), vehicle: alcohol); 2 of 6 (dose: 400.0 mg/kg/injection, schedule: Q04DX003 (ip), vehicle: alcohol).

With `CCN(CC)CCOC(=O)C1CC1(c1ccccc1)c1ccccc1` (stereo not given), the survivor count is, setting by setting: (dose: 200.0 mg/kg/injection, schedule: Q01DX009 (ip), vehicle: Klucel (hydroxypropylcellulose) (HPC)) 0 of 6; under setting [1], 0 of 6.

In the case of `[Cl][Hg][CH2]CN1CCCCC1`, the survivor count is 0 of 3 under setting [5], 0 of 3 under setting [8] and 0 of 3 under setting [9].

For the compound `O=C(CC(O)(C(F)(F)Cl)C(F)(F)Cl)c1ccco1`, the survivor count under setting [6] is given as 0 of 6.

Consider `CCCCC(CC)C1NC(=O)N(SC(Cl)(Cl)Cl)C1=O` (stereo not given), for which the survivor count reads like this: under setting [2], 0 of 3; under setting [3], 0 of 3.

Take `C=C[CH2][Sn]([Br])([c]1ccccc1)[c]1ccccc1`: the survivor count (dose: 6.25 mg/kg/injection, schedule: Q01DX009 (ip), vehicle: saline with Tween-80) is given as 2 of 6; the survivor count under setting [5] was 0 of 3; the survivor count under setting [8] is on record as 0 of 3; the survivor count under setting [9] was 0 of 3.

In the case of `CC(=O)Nc1ccnc(=O)[nH]1`, the survivor count under setting [4] is recorded as 1 of 6.

Consider `CNCCC(=O)c1ccccc1`, for which, under setting [7], the survivor count is 0 of 6.
